The other results are listed elsewhere or left out.
Experiments:
Assay in all cases: log2 fold change, soluble protein after heating vs DMSO (PISA); higher = thermal stabilisation; K562 lysate, 10 uM; active = over 0.2 and 3.5 SD of the protein, either way, in both replicates (recomputed)
ibrutinib = compound: C=CC(=O)N1CCC[C@@H](n2nc(-c3ccc(Oc4ccccc4)cc3)c3c(N)ncnc32)C1 [ibrutinib]
Summary of the method: (§1)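 Pellets of K562 cells were dounce-homogenised in PBS pH 7.4 with 1 mM MgCl2, and the crude extract was held at 1 mg/mL protein for a 30 min treatment with 10 μM compound. Aliquots were heated for 3 min over 48°C-58°C and pooled before NP-40 was added to 0.5% at 4°C. The supernatant from 21,000xg for 90 min was quantified by TMTpro 16plex LC-MS/MS with channel sums equalised. Values are reported from duplicates as log-two fold change in thermal stability relative to solvent controls.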

Chains of the proteins cited; added tags and fusions are not shown. Lines headed by an entry give the natural chain unless they say otherwise; changes in a name come on top.
UniProt P53367: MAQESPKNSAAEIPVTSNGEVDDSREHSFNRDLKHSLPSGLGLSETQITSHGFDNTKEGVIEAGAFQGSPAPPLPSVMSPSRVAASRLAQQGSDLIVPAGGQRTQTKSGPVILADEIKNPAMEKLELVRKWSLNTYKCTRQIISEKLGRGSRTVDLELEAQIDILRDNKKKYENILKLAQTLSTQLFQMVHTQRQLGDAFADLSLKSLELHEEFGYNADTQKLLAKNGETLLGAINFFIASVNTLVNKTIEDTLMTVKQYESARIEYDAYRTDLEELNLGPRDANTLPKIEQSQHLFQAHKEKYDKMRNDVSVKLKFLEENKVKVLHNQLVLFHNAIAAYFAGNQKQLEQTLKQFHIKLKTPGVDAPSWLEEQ
UniProt Q2VPB7: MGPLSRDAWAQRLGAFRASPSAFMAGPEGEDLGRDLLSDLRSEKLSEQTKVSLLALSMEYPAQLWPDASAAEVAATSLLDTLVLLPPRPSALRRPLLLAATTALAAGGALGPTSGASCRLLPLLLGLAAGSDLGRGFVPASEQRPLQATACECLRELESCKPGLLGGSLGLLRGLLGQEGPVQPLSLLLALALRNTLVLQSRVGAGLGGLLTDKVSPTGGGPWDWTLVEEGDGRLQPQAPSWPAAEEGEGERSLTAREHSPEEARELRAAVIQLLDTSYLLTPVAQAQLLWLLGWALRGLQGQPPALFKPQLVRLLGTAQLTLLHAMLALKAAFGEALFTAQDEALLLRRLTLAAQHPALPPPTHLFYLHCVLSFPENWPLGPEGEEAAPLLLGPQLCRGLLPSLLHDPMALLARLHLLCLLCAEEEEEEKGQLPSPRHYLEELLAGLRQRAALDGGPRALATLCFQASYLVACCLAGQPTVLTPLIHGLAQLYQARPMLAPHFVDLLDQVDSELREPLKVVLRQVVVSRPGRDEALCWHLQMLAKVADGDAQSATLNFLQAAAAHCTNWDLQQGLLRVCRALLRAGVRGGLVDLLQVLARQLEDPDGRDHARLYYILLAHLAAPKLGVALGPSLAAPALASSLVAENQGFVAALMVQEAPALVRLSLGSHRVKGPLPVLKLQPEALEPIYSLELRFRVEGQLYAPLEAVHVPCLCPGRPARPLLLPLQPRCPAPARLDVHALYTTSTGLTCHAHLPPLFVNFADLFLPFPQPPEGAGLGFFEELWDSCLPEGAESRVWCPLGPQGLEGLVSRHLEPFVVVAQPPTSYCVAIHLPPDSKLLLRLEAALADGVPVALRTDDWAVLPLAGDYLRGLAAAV
UniProt Q93070: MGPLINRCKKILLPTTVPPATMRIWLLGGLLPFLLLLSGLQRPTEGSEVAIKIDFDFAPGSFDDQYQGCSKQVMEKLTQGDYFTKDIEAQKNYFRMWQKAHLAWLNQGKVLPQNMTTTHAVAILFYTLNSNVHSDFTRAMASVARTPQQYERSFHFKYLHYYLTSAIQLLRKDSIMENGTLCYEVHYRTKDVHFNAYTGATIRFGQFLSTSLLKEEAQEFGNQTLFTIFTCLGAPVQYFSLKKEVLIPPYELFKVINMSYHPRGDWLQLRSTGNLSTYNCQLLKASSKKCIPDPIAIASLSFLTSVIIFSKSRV
UniProt P52565: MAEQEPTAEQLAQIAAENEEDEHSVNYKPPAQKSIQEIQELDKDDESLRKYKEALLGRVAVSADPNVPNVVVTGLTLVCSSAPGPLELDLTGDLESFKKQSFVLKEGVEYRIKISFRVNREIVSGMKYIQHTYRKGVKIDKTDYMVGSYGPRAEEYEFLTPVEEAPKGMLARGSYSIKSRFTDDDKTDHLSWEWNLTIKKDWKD
UniProt Q9BZZ5: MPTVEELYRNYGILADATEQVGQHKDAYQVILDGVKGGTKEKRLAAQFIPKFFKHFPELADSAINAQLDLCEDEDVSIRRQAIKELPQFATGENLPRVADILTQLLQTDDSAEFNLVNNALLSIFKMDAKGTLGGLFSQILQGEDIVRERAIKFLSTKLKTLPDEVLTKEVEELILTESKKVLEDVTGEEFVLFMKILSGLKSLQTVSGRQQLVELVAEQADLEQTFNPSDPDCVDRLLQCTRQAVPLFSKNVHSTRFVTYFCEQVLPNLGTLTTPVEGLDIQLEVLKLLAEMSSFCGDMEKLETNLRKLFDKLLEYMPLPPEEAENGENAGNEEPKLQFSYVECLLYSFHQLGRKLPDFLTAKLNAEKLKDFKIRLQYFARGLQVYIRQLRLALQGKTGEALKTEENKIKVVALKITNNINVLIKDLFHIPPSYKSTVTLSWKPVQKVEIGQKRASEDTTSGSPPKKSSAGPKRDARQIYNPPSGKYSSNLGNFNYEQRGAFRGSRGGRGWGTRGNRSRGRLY
UniProt Q8IWW6: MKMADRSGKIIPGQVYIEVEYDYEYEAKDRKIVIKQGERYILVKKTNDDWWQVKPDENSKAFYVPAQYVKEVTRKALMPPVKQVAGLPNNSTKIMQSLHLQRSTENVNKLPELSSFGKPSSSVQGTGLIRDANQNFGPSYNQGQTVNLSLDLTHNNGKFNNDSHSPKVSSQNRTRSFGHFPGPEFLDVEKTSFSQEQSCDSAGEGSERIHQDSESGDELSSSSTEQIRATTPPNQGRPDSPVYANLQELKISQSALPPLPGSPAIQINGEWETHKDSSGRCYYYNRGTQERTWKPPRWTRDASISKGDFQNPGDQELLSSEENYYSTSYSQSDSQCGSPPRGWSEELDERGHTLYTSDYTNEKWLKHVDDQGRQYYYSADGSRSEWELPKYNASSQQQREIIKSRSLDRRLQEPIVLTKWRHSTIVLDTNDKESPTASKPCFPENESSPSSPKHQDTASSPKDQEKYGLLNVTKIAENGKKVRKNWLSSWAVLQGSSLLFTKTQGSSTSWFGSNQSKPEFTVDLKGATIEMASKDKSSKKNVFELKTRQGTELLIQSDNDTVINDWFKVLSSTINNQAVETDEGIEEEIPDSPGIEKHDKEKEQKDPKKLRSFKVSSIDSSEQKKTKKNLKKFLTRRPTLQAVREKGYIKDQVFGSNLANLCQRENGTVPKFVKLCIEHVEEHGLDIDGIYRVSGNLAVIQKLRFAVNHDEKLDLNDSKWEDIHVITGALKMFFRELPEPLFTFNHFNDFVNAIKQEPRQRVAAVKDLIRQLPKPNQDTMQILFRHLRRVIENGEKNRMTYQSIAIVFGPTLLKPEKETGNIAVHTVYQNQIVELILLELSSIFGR
UniProt Q8N264: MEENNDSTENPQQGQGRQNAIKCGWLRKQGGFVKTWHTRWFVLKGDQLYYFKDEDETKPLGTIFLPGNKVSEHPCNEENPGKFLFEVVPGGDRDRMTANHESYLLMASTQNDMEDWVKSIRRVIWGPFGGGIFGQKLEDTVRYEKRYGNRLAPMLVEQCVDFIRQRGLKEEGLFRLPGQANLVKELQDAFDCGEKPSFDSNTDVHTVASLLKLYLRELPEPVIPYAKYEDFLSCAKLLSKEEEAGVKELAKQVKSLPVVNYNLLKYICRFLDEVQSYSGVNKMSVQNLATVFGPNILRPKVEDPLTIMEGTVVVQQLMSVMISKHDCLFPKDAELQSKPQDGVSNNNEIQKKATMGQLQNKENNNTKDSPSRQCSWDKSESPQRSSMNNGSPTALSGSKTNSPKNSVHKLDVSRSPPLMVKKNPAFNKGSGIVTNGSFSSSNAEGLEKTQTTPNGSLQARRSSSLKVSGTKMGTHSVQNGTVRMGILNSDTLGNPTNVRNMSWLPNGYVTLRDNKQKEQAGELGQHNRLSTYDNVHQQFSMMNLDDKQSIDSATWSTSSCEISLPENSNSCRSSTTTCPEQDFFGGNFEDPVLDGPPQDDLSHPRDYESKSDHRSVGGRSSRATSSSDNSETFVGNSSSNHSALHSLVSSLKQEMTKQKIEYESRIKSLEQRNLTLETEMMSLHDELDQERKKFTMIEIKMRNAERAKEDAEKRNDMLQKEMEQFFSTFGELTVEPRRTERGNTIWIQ
UniProt Q96C12: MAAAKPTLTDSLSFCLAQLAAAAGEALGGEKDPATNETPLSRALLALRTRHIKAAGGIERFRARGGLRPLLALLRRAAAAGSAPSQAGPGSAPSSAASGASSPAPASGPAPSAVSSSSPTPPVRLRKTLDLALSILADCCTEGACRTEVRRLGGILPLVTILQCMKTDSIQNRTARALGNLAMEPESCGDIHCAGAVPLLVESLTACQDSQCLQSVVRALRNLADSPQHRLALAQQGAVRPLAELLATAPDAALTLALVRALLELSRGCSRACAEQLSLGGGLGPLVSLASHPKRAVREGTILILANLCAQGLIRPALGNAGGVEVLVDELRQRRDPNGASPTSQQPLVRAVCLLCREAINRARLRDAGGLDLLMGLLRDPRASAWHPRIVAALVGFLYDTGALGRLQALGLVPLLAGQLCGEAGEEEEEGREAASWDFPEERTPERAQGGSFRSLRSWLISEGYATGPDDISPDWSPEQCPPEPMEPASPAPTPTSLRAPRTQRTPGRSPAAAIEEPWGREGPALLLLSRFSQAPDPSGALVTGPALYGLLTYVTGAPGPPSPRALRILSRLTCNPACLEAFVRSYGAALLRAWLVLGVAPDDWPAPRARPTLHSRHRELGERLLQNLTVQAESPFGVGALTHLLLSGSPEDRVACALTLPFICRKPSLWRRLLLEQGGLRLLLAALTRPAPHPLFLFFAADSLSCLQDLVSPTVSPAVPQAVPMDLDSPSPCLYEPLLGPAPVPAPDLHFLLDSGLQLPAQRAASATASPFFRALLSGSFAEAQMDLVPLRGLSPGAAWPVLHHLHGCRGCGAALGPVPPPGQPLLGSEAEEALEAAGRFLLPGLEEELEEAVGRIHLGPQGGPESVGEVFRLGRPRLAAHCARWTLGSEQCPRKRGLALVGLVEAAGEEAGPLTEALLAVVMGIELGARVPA
UniProt Q7Z2E3: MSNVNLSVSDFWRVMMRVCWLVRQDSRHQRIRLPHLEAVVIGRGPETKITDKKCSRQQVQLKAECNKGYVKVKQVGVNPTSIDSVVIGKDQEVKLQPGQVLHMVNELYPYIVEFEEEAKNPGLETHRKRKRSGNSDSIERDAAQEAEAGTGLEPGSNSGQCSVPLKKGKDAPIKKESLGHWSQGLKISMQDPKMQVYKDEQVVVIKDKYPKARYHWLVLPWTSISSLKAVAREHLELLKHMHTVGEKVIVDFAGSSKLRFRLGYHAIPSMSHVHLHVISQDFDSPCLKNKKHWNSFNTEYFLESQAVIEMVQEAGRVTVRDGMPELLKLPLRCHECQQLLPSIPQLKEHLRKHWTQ
UniProt Q66PJ3: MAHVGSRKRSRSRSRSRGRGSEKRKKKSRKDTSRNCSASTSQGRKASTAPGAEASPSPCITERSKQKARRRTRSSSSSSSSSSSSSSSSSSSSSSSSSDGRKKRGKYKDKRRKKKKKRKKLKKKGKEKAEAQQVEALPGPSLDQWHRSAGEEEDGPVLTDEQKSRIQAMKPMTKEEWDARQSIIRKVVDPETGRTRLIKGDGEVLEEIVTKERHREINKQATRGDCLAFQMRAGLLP
UniProt Q9Y689: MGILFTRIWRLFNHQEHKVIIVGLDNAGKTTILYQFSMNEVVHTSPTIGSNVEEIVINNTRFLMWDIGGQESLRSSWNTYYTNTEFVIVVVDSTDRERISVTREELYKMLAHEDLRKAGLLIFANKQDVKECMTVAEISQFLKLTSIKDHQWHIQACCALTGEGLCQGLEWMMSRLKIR
UniProt P35414: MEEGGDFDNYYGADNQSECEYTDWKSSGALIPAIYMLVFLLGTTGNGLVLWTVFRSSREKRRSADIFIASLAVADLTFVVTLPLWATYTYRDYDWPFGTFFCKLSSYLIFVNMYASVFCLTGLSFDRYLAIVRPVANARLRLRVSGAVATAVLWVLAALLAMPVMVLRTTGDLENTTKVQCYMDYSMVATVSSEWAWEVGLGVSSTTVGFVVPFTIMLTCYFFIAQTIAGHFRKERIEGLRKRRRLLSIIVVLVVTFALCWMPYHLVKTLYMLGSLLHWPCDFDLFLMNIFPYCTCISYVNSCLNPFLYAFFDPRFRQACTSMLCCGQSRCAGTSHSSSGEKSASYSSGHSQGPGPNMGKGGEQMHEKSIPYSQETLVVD
UniProt Q6UWY0: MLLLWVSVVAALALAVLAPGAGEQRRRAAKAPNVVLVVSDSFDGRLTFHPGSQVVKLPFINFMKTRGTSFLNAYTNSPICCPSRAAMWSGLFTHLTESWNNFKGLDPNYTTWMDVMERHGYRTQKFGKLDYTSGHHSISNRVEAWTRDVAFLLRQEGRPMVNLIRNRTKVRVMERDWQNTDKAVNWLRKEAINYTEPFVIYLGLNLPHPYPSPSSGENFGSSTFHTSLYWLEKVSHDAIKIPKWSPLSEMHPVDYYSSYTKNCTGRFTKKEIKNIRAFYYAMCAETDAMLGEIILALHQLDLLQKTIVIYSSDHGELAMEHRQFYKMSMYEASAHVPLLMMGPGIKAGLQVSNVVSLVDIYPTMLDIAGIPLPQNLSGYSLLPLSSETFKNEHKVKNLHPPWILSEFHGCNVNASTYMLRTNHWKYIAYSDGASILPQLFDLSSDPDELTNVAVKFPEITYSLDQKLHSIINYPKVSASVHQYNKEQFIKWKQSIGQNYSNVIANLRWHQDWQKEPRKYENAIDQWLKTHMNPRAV

[1] = compound: CC(=O)c1cnc2ccc(-c3cc(Cl)c(O)c(Cl)c3)nc2c1N[C@H]1CC[C@H](CN(C)C)CC1
Summary of the method: as §1

ralimetinib = compound: CC(C)(C)Cn1c(N)nc2ccc(-c3[nH]c(C(C)(C)C)nc3-c3ccc(F)cc3)nc21 [ralimetinib]
Summary of the method: as §1

[2] = compound: CC(C)(O)CC(=O)NCCn1ccc2ncnc(Nc3ccc(Oc4cccc(C(F)(F)F)c4)c(Cl)c3)c21
Summary of the method: as §1

[3] = compound: CC1=C(C(CC(=O)N1)C2=CC=C(C=C2)C(F)(F)F)C(=O)NC3=C(C=C4C(=C3)C=NN4)F
Summary of the method: as §1

[4] = compound: CC1=C(C2=C(C=C1)C(=O)C3=CC=CC=C3N2CCCN)C
Summary of the method: as §1

[5] = compound: CC1=C(C=C(C=C1)NC(=O)C2=CC(=CC=C2)N(C)C)NC(=O)C3=CC=C(C=C3)O
Summary of the method: as §1

[6] = compound: CC1=CC=C(C=C1)SC2=C3C=C(SC3=CN=C2)C(=O)N
Summary of the method: as §1

vemurafenib = compound: CCCS(=O)(=O)Nc1ccc(F)c(C(=O)c2c[nH]c3ncc(-c4ccc(Cl)cc4)cc23)c1F [vemurafenib]
Summary of the method: as §1

[7] = compound: CCCS(=O)(=O)Nc1ccc(F)c(C(=O)c2c[nH]c3ncc(Cl)cc23)c1F
Summary of the method: as §1

barasertib = compound: CCN(CCCOc1ccc2c(Nc3cc(CC(=O)Nc4cccc(F)c4)[nH]n3)ncnc2c1)CCOP(=O)(O)O [barasertib]
Summary of the method: as §1

[8] = compound: CC[C@@H]1C(=O)N(C)c2cnc(Nc3ccc(C(=O)NC4CCN(C)CC4)cc3OC)nc2N1C1CCCC1
Summary of the method: as §1

volasertib = compound: CC[C@@H]1C(=O)N(C)c2cnc(Nc3ccc(C(=O)N[C@H]4CC[C@H](N5CCN(CC6CC6)CC5)CC4)cc3OC)nc2N1C(C)C [volasertib]
Summary of the method: as §1

[9] = compound: CCn1c(C(=O)N(C2CC2)C2CC2)cc2c3c(ncn3C)c(Nc3cc(C)n(C)n3)nc21
Summary of the method: as §1

[10] = compound: CCn1cc(-c2ccnc3[nH]c(-c4cccc(CN(C)C)c4)cc23)c(-c2ccc(NC(=O)N(C)C)cc2)n1
Summary of the method: as §1

[11] = compound: CN1CCC(CNc2ccc3ncc(-c4cccc(OC(F)(F)F)c4)n3n2)CC1
Summary of the method: as §1

saracatinib = compound: CN1CCN(CCOc2cc(OC3CCOCC3)c3c(Nc4c(Cl)ccc5c4OCO5)ncnc3c2)CC1 [saracatinib]
Summary of the method: as §1

[12] = compound: CC(C)C1=C2N=C(C=C(N2N=C1)NCC3=CC=CC=C3)NCCCCCCN
Summary of the method: as §1

[13] = compound: CC1=C(C=C(C=C1)NC(=O)C2=CC(=CC=C2)C(C)(C)C#N)NC3=CC4=C(C=C3)N=CN(C4=O)C
Summary of the method: as §1

sotrastaurin = compound: CN1CCN(c2nc(C3=C(c4c[nH]c5ccccc45)C(=O)NC3=O)c3ccccc3n2)CC1 [sotrastaurin]
Summary of the method: as §1

Measured: log2 fold change

ARFIP1 isoform 2 (UniProt P53367)
inactive: ibrutinib 0.002 | [1] 0.028 | ralimetinib 0.096 | [2] -0.047 | [3] -0.139 | [4] 0.018 | [5] 0.021 | [6] 0.001 | vemurafenib 0.038 | [7] 0.042 | barasertib 0.02 | [8] 0.085 | volasertib -0.025 | [9] -0.119 | [10] 0.068 | [11] -0.012 | saracatinib -0.018

APLF (UniProt Q8IW19)
inactive: ibrutinib 0.033 | [1] -0.118 | [12] -0.069 | [13] 0.086 | [6] -0.052 | vemurafenib 0.029 | [7] 0.052 | barasertib -0.012 | [8] 0.054 | volasertib 0.034 | sotrastaurin -0.002

APOH (UniProt P02749)
inactive: ibrutinib -0.008 | [1] -0.102 | [13] -0.109 | [6] -0.048 | [7] -0.002 | barasertib -0.16 | volasertib -0.107 | sotrastaurin 0.268

ARID3B (UniProt Q8IVW6)
inactive: ibrutinib 0.09 | [1] -0.059 | ralimetinib -0.015 | [2] -0.048 | [12] 0.002 | [3] -0.008 | [4] -0.006 | [13] -0.011 | [5] 0.034 | [6] 0.024 | vemurafenib 0.009 | [7] -0.129 | barasertib 0.014 | [8] 0.001 | volasertib -0.121 | [9] 0.024 | [10] -0.286 | [11] 0.052 | saracatinib 0.028 | sotrastaurin 0.036

AP5B1 (UniProt Q2VPB7)
inactive: ibrutinib 0.112 | [1] -0.037 | ralimetinib -0.04 | [2] -0.072 | [12] 0.011 | [3] 0.021 | [4] -0.067 | [13] -0.08 | [5] 0.036 | [6] -0.006 | [7] 0.062 | barasertib 0.035 | [8] 0.066 | volasertib 0.011 | [9] 0.001 | [10] 0.002 | [11] 0.045 | saracatinib -0.014 | sotrastaurin -0.062

ART4 (UniProt Q93070)
inactive: ibrutinib 0.093 | vemurafenib -0.058 | barasertib -0.019 | [8] 0.029 | [10] -0.025 | [11] 0.017

ARHGAP22 isoform 2 (UniProt Q7Z5H3)
inactive: [1] -0.071 | ralimetinib 0.049 | [2] -0.15 | [12] 0.029 | [4] -0.047 | [13] 0.097 | [5] 0.024 | [6] 0.008 | [7] -0.08 | [8] 0.116 | volasertib 0.061 | [9] -0.047 | saracatinib -0.033 | sotrastaurin -0.038

ARHGAP27 (UniProt Q6ZUM4)
inactive: ibrutinib 0.02 | vemurafenib -0.078 | barasertib 0.198

2 successive entries already listed, quoted:
AP5B1 (UniProt Q2VPB7)
inactive: ibrutinib 0.112 | [1] -0.037 | ralimetinib -0.04 | [2] -0.072 | [12] 0.011 | [3] 0.021 | [4] -0.067 | [13] -0.08 | [5] 0.036 | [6] -0.006 | [7] 0.062 | barasertib 0.035 | [8] 0.066 | volasertib 0.011 | [9] 0.001 | [10] 0.002 | [11] 0.045 | saracatinib -0.014 | sotrastaurin -0.062

ART4 (UniProt Q93070)
inactive: ibrutinib 0.093 | vemurafenib -0.058 | barasertib -0.019 | [8] 0.029 | [10] -0.025 | [11] 0.017

Following part.

ARHGEF40 (UniProt Q8TER5)
inactive: [1] 0.171 | ralimetinib 0.035 | [2] -0.204 | [12] 0.006 | [3] -0.039 | [4] -0.139 | [5] -0.016 | [6] 0.045 | [7] -0.107 | volasertib -0.02 | [9] 0.114 | saracatinib 0.077

ARHGDIA (UniProt P52565)
inactive: ibrutinib -0.001 | [1] -0.012 | ralimetinib -0.019 | [2] -0.024 | [12] 0.007 | [3] -0.055 | [4] -0.025 | [13] 0.007 | [5] 0.003 | [6] -0.01 | vemurafenib 0 | [7] -0.014 | barasertib -0.013 | [8] 0.046 | volasertib 0.023 | [9] -0.039 | [10] -0.194 | [11] 0.024 | saracatinib -0.012 | sotrastaurin -0.005

ARL13B (UniProt Q3SXY8)
inactive: ibrutinib -0.001 | [1] -0.033 | ralimetinib 0.058 | [2] -0.032 | [12] 0.081 | [4] -0.002 | [13] 0.047 | [5] -0.068 | [6] 0.077 | vemurafenib -0.075 | [7] -0.039 | barasertib -0.041 | volasertib 0.065 | [9] -0.043 | [10] 0.325 | [11] -0.246 | saracatinib 0.007 | sotrastaurin 0.117

ARMC6 (UniProt Q6NXE6)
inactive: ibrutinib 0.023 | [1] 0.005 | ralimetinib 0.007 | [2] -0.005 | [12] 0.002 | [3] -0.013 | [4] 0.001 | [13] -0.011 | [5] 0.016 | [6] 0 | vemurafenib -0.053 | [7] 0.02 | barasertib 0.071 | [8] -0.136 | volasertib -0.056 | [9] 0.019 | [10] 0.002 | [11] -0.035 | saracatinib 0.013 | sotrastaurin 0.019

API5 isoform 2 (UniProt Q9BZZ5)
inactive: ibrutinib 0.012 | [1] -0.011 | ralimetinib 0.053 | [2] 0.022 | [12] 0.104 | [3] 0 | [4] -0.04 | [13] -0.091 | [5] -0.05 | [6] 0.087 | vemurafenib -0.048 | [7] 0.081 | barasertib 0.037 | [8] 0.032 | volasertib -0.131 | [9] -0.066 | [10] 0.133 | [11] -0.021 | saracatinib -0.007 | sotrastaurin 0.087

ARMCX5 (UniProt Q6P1M9)
inactive: ibrutinib 0.04 | [1] -0.018 | ralimetinib 0.012 | [2] 0.013 | [12] -0.004 | [3] -0.047 | [4] 0.053 | [5] -0.049 | [6] -0.093 | vemurafenib 0 | [7] 0.032 | barasertib 0.007 | [8] -0.034 | volasertib -0.012 | [9] -0.027 | [10] -0.099 | [11] -0.03 | saracatinib 0.043

ARHGAP12 isoform 3 (UniProt Q8IWW6)
inactive: [4] -0.005 | vemurafenib -0.097 | [10] 0.093 | [11] 0.002 | saracatinib -0.151

ARHGAP24 (UniProt Q8N264)
inactive: [12] -0.025 | [3] -0.013 | vemurafenib -0.368 | [8] 0.08 | [10] 0.209 | [11] -0.162

ARMC5 (UniProt Q96C12)
inactive: [10] 0.156 | [11] 0

APTX isoform 4 (UniProt Q7Z2E3)
inactive: [3] -0.189 | [10] -0.25 | [11] 0.104

ARL6IP4 isoform 2 (UniProt Q66PJ3)
inactive: [1] 0.039 | [6] 0.112 | [7] -0.113 | volasertib -0.005 | [10] -0.015 | [11] 0.04

ASAP2 (UniProt O43150)
inactive: [1] 0.046 | [6] -0.061 | [7] 0.004 | volasertib -0.077

ARL5A (UniProt Q9Y689)
inactive: [1] -0.036 | ralimetinib 0.065 | [2] -0.029 | [3] 0.072 | [4] -0.195 | [13] -0.029 | [5] -0.022 | [6] 0.03 | vemurafenib 0.084 | [7] 0.07 | [8] 0.008 | volasertib -0.055 | [9] -0.071 | [10] -0.083 | [11] 0.005 | saracatinib 0.081 | sotrastaurin 0.126

APLNR (UniProt P35414)
inactive: [10] -0.098 | [11] -0.186

ARL4A (UniProt P40617)
inactive: [3] 0.055 | [8] -0.005

ARMC7 (UniProt Q9H6L4)
inactive: [4] -0.11 | [13] 0.038 | vemurafenib -0.057 | saracatinib -0.07 | sotrastaurin -0.002

ARSK (UniProt Q6UWY0)
inactive: [1] -0.093 | ralimetinib 0 | [2] 0.001 | [12] 0.165 | [4] -0.004 | [5] -0.08 | [6] -0.199 | vemurafenib 0.086 | [7] 0.091 | [8] -0.082 | volasertib -0.094 | [9] -0.058 | [10] -0.005 | [11] 0.153 | saracatinib 0.068
